Measured values from publication doi:10.1101/2021.04.08.439049.
Like-named read-outs stand apart in the source and are kept apart here. These are yes or no findings as the source states them, for the method shown. For some of these results: In cells and extracts the contact can be indirect. Some results given as binding are weak or reduced against the parent protein; the word gives no strength. For some of these results: Sequences can lack the tags named with a protein.

Protein sequences, listed by entry. Tags and fused reporters are not part of them. Lines headed by an entry give the natural chain unless they say otherwise; changes in a name come on top.
UniProt P49841, whole entry: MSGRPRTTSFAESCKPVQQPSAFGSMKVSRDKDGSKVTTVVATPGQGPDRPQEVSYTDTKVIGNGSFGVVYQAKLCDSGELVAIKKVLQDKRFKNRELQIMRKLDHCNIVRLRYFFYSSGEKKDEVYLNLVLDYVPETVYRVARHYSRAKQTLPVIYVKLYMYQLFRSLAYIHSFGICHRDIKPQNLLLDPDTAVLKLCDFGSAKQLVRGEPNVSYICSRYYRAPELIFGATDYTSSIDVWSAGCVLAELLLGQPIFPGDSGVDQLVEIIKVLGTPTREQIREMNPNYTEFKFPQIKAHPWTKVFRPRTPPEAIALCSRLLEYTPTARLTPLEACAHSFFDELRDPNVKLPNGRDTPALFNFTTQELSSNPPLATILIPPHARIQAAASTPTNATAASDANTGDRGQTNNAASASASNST
UniProt P10644, whole entry: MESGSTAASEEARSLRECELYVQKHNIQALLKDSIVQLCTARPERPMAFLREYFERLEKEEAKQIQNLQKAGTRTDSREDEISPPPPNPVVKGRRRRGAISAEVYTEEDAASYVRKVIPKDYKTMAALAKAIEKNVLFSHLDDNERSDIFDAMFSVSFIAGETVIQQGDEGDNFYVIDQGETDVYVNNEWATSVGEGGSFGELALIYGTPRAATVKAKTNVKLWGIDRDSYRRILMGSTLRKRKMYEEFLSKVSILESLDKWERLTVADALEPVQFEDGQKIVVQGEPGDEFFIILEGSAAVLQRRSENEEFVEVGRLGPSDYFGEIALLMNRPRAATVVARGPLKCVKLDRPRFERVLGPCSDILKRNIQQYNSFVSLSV

Key:
[1] = target: T1, Myc-HK2 protein (OriGene) (UniProt P52789); test: ELISA
T1 sequence: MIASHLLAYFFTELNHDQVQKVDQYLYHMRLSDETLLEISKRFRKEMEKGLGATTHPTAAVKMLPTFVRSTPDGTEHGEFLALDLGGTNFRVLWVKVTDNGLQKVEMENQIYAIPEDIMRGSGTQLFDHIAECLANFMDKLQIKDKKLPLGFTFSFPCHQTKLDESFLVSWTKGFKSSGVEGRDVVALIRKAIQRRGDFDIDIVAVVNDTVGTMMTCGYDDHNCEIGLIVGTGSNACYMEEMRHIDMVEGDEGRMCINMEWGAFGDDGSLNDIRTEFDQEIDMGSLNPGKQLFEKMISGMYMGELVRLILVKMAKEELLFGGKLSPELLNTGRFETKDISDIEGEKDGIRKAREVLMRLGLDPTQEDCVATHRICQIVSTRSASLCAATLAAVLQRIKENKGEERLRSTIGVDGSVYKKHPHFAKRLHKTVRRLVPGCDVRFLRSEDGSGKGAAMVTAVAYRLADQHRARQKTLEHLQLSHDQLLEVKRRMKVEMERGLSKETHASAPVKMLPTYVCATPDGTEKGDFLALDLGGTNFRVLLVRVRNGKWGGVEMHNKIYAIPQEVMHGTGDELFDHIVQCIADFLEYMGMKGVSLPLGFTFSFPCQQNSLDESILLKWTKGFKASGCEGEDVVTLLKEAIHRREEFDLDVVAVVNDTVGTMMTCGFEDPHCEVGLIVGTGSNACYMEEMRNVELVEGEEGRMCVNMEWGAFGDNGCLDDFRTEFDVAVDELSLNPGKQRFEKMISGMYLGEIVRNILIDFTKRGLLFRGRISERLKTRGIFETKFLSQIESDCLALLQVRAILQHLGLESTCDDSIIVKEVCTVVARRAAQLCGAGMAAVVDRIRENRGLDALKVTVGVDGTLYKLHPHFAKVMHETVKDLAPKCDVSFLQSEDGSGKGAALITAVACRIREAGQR

[2] = target: T2, His-HK2 (Creative Biomart) (UniProt P52789); test: ELISA
T2 sequence: T1 sequence

[3] = target: T3, HA-tagged HK2, wild type (catalytically active), in M15-4 CHO cells (rat) (UniProt P27881); test: co-IP
T3 sequence: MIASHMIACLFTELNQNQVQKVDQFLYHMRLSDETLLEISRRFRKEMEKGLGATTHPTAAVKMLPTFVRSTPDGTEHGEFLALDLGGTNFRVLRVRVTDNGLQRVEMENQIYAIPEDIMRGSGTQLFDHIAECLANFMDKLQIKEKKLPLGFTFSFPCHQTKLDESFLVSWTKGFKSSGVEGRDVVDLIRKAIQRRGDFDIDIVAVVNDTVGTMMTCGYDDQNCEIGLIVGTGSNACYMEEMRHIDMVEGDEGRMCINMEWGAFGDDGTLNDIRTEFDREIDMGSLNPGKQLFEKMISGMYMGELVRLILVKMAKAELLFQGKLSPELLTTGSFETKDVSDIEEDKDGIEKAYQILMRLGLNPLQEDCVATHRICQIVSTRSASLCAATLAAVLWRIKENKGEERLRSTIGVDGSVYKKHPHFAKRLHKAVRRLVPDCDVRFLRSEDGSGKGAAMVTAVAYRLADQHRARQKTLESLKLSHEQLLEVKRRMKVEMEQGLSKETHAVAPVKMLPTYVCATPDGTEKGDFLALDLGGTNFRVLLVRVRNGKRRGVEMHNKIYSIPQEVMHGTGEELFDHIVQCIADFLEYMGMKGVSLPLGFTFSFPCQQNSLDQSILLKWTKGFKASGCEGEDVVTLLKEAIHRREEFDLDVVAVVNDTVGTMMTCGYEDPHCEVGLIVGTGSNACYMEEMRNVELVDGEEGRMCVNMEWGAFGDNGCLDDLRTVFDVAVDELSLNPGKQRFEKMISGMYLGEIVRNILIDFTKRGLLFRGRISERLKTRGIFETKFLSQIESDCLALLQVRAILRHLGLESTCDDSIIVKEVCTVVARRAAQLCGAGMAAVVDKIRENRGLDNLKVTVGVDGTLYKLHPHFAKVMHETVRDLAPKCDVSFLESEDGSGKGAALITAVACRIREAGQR

[4] = target: T4, HA-tagged HK2 (HK2-HA), wild type, in HEK293 cells (rat) (UniProt P27881); test: co-IP
T4 sequence: T3 sequence

[5] = target: T4, HA-tagged HK2 (HK2-HA), wild type, in HEK293 cells (rat); test: co-IP; remark: listed apart in the source
[6] = target: T5, endogenous HK2 of HEK293 cells (human (endogenous in HEK293)) (UniProt P52789); test: co-IP
T5 sequence: T1 sequence

Substance: GST-GSK3b (Abcam) (from UniProt P49841 1-420) (enzyme)
- binding [1]: binds
- binding [2]: binds

Substance: Myc-GSK3β in M15-4 CHO cells (from UniProt P49841 1-420) (enzyme)
- binding [3]: binds

Substance: Myc-GSK3β nonphosphorylatable mutant (S9A) in HEK293 cells (from UniProt P49841 1-420) (enzyme)
- binding [4]: binds weakly
- binding [5]: binds

Substance: Myc-PRKAR1α (Creative Biomart) (from UniProt P10644 1-381)
- binding [2]: binds

Substance: endogenous GSK3β of HEK293 cells (from UniProt P49841 1-420) (enzyme)
- binding [6]: binds

Substance: endogenous PRKAR1a of HEK293 cells (from UniProt P10644 1-381)
- binding [5]: binds

Substance: myc-GSK3β wild type in HEK293 cells (from UniProt P49841 1-420) (enzyme)
- binding [4]: binds weakly
- binding [5]: binds
